Measurements from PubChem BioAssay AID2685 (National Center for Advancing Translational Sciences (NCATS), 2010).
The list shows a part of the results. The main result of the screen is listed elsewhere. These columns were measured beside it and carry no call. The list favours compounds with an active or inconclusive main result. Potencies come from curve fits of mixed quality, noted in brackets.

Assay: qHTS Assay for Lipid Storage Modulators in Drosophila S3 Cells;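 for cell number change: cells counted by Cell Tracker Red CMTPX staining in the red channel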
Settings: BODIPY lipid droplet fluorescence, 18-24 h; for cell number change: measured here: cell count max response, cells fed with added oleic acid
Procedure, shortened: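 Laser-scanning cytometry quantifies lipid droplet accumulation (500–530 nm total intensity; droplet/cell object ratio) in oleic acid-fed (400 uM added) Drosophila S3 cells treated with a concentration series. 20 uM Triacsin C defined 100% inhibition.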

[1] = measured here: lipid fluorescence (Fed channel) AC50, cells fed with added oleic acid
[2] = measured here: cell number channel AC50, cells fed with added oleic acid

| SMILES | cell number change | AC50 [1] | AC50 [2] |
| --- | --- | --- | --- |
| CCCCCSc1nnc(-c2ccccc2N)c(=O)[nH]1 | 17% | 73.1 nM [falling, full curve, poor fit] |  |
| COc1ccc2c(c1)OCC1=C2CCC2(C)C(=O)CC=C12 (stereo not given) | 4.92% | 29100 nM [falling, partial curve] |  |
| O=C(NCCCN1CCCC1)c1ccc2c(c1)N(Cc1ccc(F)cc1)C(=O)c1ccccc1S2=O (stereo not given) | 24.8% |  | 2590 nM [rising, full curve, poor fit] |
| O=C(Nc1ccc(S(=O)(=O)Nc2nccc(C3Cc4ccccc4C(=O)O3)n2)cc1)c1ccccc1 (stereo not given) | 1.87% |  |  |
| Cc1ccc(NC(=O)CNC(=O)c2ccc(C)s2)nc1 | 34.1% | 2060 nM [rising, partial curve] | 29100 nM [rising, single point] |
| COC(=O)c1ccc(C(=O)OC)c(NC(=O)CSc2cccc[n+]2[O-])c1 | -42% |  | 8200 nM [falling, partial curve] |
| COC(=O)Cc1ccc(NC(=S)NC(C)(C)C)cc1 | -39.2% |  |  |
| CC(=O)c1cccc(NC(=O)NCc2ccccn2)c1 |  | 6510 nM [rising, partial curve, poor fit] | 6510 nM [rising, partial curve, poor fit] |
| CC(=O)Nc1ccc(S(=O)(=O)NCc2nnnn2-c2ccc(Cl)cc2)cc1 | 4.17% | 6510 nM [falling, single point] |  |
| COc1ccccc1C(=O)NCCC(=O)NCc1ccncc1 | -1.68% | 5.17 nM [rising, full curve, poor fit] |  |
| CCOC(=O)CN(Cc1ccccc1)S(=O)(=O)c1ccc(NC(C)=O)cc1 | -7.15% | 1640 nM [rising, partial curve, poor fit] |  |
| O=C(O)C1CCCCN1C(=O)c1ccc(S(=O)(=O)N2CCCC2)cc1 (stereo not given) | -36.1% |  | 2060 nM [falling, full curve] |
| Clc1ccc(OCCCN2CCCCC2)c(Br)c1 | -1.23% | 6510 nM [falling, full curve] |  |
| O=C(Oc1cccc(-n2cnnn2)c1)c1ccccc1 | -35.6% |  | 23100 nM [falling, partial curve, poor fit] |
| COc1ccc(Oc2ccc(C(F)(F)F)cc2NC(=O)c2ccc(C)cc2)cc1 | -4.89% | 5.17 nM [rising, full curve, poor fit] |  |
| Cc1cc(=O)c2ccccc2n1Cc1ccccc1 | 2.55% | 4610 nM [rising, single point] |  |
| COc1cccc(C(=O)OCC(=O)Nc2ccc(N3CCOCC3)cc2)c1 | -26.4% | 130 nM [falling, partial curve, poor fit] |  |
| Cn1nc(C(F)(F)F)c(C#N)c1N1CCN(c2ccccc2F)CC1 | -2.68% | 14600 nM [rising, partial curve] |  |
| C#CCOC(=O)c1ccccc1C(=O)N(CC)CC | -21.4% | 4610 nM [falling, full curve, poor fit] |  |

| SMILES | cell number change | AC50 [1] | AC50 [2] |
| --- | --- | --- | --- |
| COC(=O)Cn1cnc2c(cnn2-c2ccc(C)cc2)c1=O | 14.1% | 259 nM [rising, full curve, poor fit] |  |
| CC(=O)NCC1CCN(C(=O)C2CCC(=O)N(CCc3cccc(F)c3)C2)CC1 (stereo not given) | 9.04% | 4.11 nM [rising, full curve, poor fit] |  |
| CC1CCCCN1C(=O)Cn1cc(/C=C2/C(=O)Nc3ccccc32)c2ccccc21 (stereo not given) | -33.9% | 29100 nM [falling, single point] | 29100 nM [falling, single point] |
| CN(C)C1=NCCN1CCCC1CCCC1 | 23.4% | 6510 nM [rising, single point] |  |
| COc1ccccc1N1CCN(C(=O)C(F)F)CC1 | 17% | 820 nM [rising, single point] |  |
| COc1ccc(S(=O)(=O)N2CCOCC2)cc1NC(=O)CSc1cc(C)ccc1C | -11.3% | 146 nM [falling, full curve, poor fit] | 82 nM [falling, full curve, poor fit] |
| COc1ccc(N2CC(C(=O)Nc3nc4ccc(OC)cc4s3)CC2=O)cc1 (stereo not given) | -33.3% |  |  |
| C/C(=C\c1ccccc1)CN1CCN(c2ccccc2)CC1 | -27.9% | 32600 nM [falling, single point] |  |
| CCCOC(=O)c1ccc(NC(=O)CSC2=Nc3ccccc3C3CC=NN23)cc1 (stereo not given) |  | 103 nM [rising, full curve, poor fit] | 73.1 nM [rising, full curve, poor fit] |
| Cc1ccccc1CS(=O)(=O)Cc1ccc(C(=O)NC2CCCCC2)o1 | 7.91% |  | 116 nM [rising, partial curve, poor fit] |
| CCn1c(C)nnc1SCC(=O)Nc1nccs1 | -13.2% | 631 nM [rising, full curve, poor fit] |  |
| COc1ccc(OCCCN2CCc3ccccc3C2)cc1 | 13.2% | 6510 nM [rising, partial curve] |  |
| CCCCc1nc(NCc2ccccc2)c(C#N)c2c1COC(C)(C)C2 | 5.79% | 146 nM [falling, full curve, poor fit] |  |
| CCOCCCNC(=O)C1CCCN1C(=O)NC1CCCCC1 (stereo not given) |  | 29100 nM [falling, single point] |  |
| C=C(C)C1CC=C(C)/C(=N\NC(=O)CCc2ccccc2)C1 (stereo not given) |  | 6510 nM [rising, partial curve] | 920 nM [rising, single point] |
| O=C(Nc1ccccc1C(=O)N1CCOCC1)c1noc2c1CCCC2 | 0.729% |  |  |
| CCOC(=O)c1ccc(N2C(=O)C3ON(c4ccccc4)C(c4ccco4)C3C2=O)cc1 (stereo not given) | 40.6% | 11.6 nM [rising, full curve] | 6510 nM [rising, single point] |
| CC(=O)c1ccc(S(=O)(=O)N2CCCCC2C(=O)O)cc1 (stereo not given) | 4.88% | 820 nM [falling, full curve] |  |
| CC(=O)C[C@H](O)CC(=O)[C@H]1OC(=O)CCCCCCCc2ccccc21 | -12.2% | 20600 nM [rising, single point] |  |

Only cell number change (2 entries from above):
SMILES | cell number change
COc1ccc(S(=O)(=O)N2CCOCC2)cc1NC(=O)CSc1cc(C)ccc1C | -11.3%
COc1ccc(N2CC(C(=O)Nc3nc4ccc(OC)cc4s3)CC2=O)cc1 (stereo not given) | -33.3%
